{
  "source": "the supplement of paper PMC8728848",
  "assay_in_all_cases": "glycan array binding signal (z-score within array); higher = stronger binding",
  "conditions_in_all_cases": "glycan notation: IUPAC condensed, linker removed",
  "key": {"[1]": {"target": "Gal3S(b1-3)[Fuc(a1-4)]GlcNAc", "in_short": "(§1)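 Arrays were curated from the Consortium for Functional Glycomics database, 3228 in total, and kept only where the protein sequence was available. Binding is expressed as a within-array Z-score. This score was averaged across arrays of the same protein sequence at different concentrations or buffers and across linkers, and negative values can be read as non-binding.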"}, "[2]": {"target": "Gal3S(b1-4)Glc", "in_short": "as §1"}, "[3]": {"target": "Gal3S(b1-4)Glc6S", "in_short": "as §1"}, "[4]": {"target": "Gal3S(b1-4)GlcNAc", "in_short": "as §1"}, "[5]": {"target": "Gal3S(b1-4)[Fuc(a1-3)]Glc6S", "in_short": "as §1"}, "[6]": {"target": "Gal3S(b1-4)[Fuc(a1-3)]GlcNAc", "in_short": "as §1"}, "[7]": {"target": "Gal3S(b1-4)[Fuc(a1-3)]GlcNAc6S", "in_short": "as §1"}, "[8]": {"target": "Gal3S4S(b1-4)GlcNAc", "in_short": "as §1"}, "[9]": {"target": "Gal3S6S(b1-4)GlcNAc", "in_short": "as §1"}, "[10]": {"target": "Gal3S6S(b1-4)GlcNAc6S", "in_short": "as §1"}, "[11]": {"target": "Gal4S(b1-4)GlcNAc", "in_short": "as §1"}, "[12]": {"target": "Gal4S6S(b1-4)GlcNAc", "in_short": "as §1"}, "[13]": {"target": "Gal6P(b1-4)GlcNAc", "in_short": "as §1"}, "[14]": {"target": "Gal6S(b1-3)GlcNAc", "in_short": "as §1"}, "[15]": {"target": "Gal6S(b1-3)GlcNAc6S", "in_short": "as §1"}, "[16]": {"target": "Gal6S(b1-4)Glc", "in_short": "as §1"}, "[17]": {"target": "Gal6S(b1-4)Glc6S", "in_short": "as §1"}, "[18]": {"target": "Gal6S(b1-4)GlcNAc", "in_short": "as §1"}, "[19]": {"target": "Gal6S(b1-4)GlcNAc6S", "in_short": "as §1"}, "[20]": {"target": "GalNAc(a1-3)Gal", "in_short": "as §1"}, "[21]": {"target": "GalNAc(a1-3)GalNAc", "in_short": "as §1"}, "[22]": {"target": "GalNAc(a1-3)GalNAc(b1-3)Gal(a1-4)Gal(b1-4)Glc", "in_short": "as §1"}, "[23]": {"target": "GalNAc(a1-3)GalNAc(b1-3)Gal(a1-4)Gal(b1-4)GlcNAc", "in_short": "as §1"}, "[24]": {"target": "GalNAc(b1-3)Gal", "in_short": "as §1"}, "[25]": {"target": "GalNAc(b1-3)Gal(a1-4)Gal(b1-4)GlcNAc", "in_short": "as §1"}, "[26]": {"target": "GalNAc(b1-3)Gal(a1-4)Gal(b1-4)GlcNAc(b1-3)Gal(b1-4)Glc", "in_short": "as §1"}, "[27]": {"target": "GalNAc(b1-3)Gal(a1-6)Gal(b1-4)Glc", "in_short": "as §1"}, "[28]": {"target": "GalNAc(b1-3)GalNAc", "in_short": "as §1"}, "[29]": {"target": "GalNAc(b1-3)GlcNAc", "in_short": "as §1"}, "[30]": {"target": "GalNAc(b1-4)Gal(b1-4)Glc", "in_short": "as §1"}},
  "note": "The list shows a part of the results.",
  "data": [
    {"binder": "CcfD (Bacteroides vulgatus), A6KYX8 (protein) MKYKNYFKSIIYLALGAFTLGSCEDFLDRQEDEKLTFDKIWESRNTTQQYWLNAMSFLPNENGSLQGDTEPYLGASDECTIAYDRQYRWINFGTWNPSQVPYYKMDHYYKGIRECNIFLQNVYKCSDPLVTKDQLDEWYWQTRFARAYYYFLMMRDYGPVFLLGDDLLDFTASTEELYRPRNTWDQCVNYVVSEMTQCAESGVVLQQSDLPAAKWGLATVGTCHAVISRLLLYSARPLFNGNKLYSTVKNPDAPDFPELSGVKLFPELDNTKWQKAAEAAKKLIDNPCYELYRAGNDNPYEDYYGVTHETWNKELIWTDRYNGLFSWGVGTVPTGVAGTAYGAVGPTQALVDAYAMNTGWYPITGYEADGTPIVEPLSGYELASELEKSSWIYPSGGWSNKADFEIEAPNMYKDREPRFYVTVFFGGNQWLHGNSATSISFAKGGNGNKSHDYPKSGYLCNRFYDHKLNSSEGQWGNITFPVFRLGEIYLNFIEAVLECKKNGVALDPSYEALAMEKWADLRKRAGLDPITSIYGQVSTEELIQLCRKERQIELAFERHRYFDTRTWMIATQTDNGKMYGMNTSCPLDAGMKGTETPDGFWERTAFETRVFQNKHYLYPFSQRELDRNKLLTQNYGW", "values": [
      {"measurement": "glycan array binding signal (z-score)", "setting": "[1]", "result": 1.02},
      {"measurement": "glycan array binding signal (z-score)", "setting": "[2]", "result": 1.22},
      {"measurement": "glycan array binding signal (z-score)", "setting": "[3]", "result": -0.172},
      {"measurement": "glycan array binding signal (z-score)", "setting": "[4]", "result": 0.519},
      {"measurement": "glycan array binding signal (z-score)", "setting": "[5]", "result": 0.298},
      {"measurement": "glycan array binding signal (z-score)", "setting": "[6]", "result": -0.317},
      {"measurement": "glycan array binding signal (z-score)", "setting": "[7]", "result": 0.595},
      {"measurement": "glycan array binding signal (z-score)", "setting": "[8]", "result": 0.003},
      {"measurement": "glycan array binding signal (z-score)", "setting": "[9]", "result": 1.03},
      {"measurement": "glycan array binding signal (z-score)", "setting": "[10]", "result": 2.22},
      {"measurement": "glycan array binding signal (z-score)", "setting": "[11]", "result": 0.694},
      {"measurement": "glycan array binding signal (z-score)", "setting": "[12]", "result": -0.282},
      {"measurement": "glycan array binding signal (z-score)", "setting": "[13]", "result": -0.653},
      {"measurement": "glycan array binding signal (z-score)", "setting": "[14]", "result": 1.23},
      {"measurement": "glycan array binding signal (z-score)", "setting": "[15]", "result": 1.13},
      {"measurement": "glycan array binding signal (z-score)", "setting": "[16]", "result": 0.254},
      {"measurement": "glycan array binding signal (z-score)", "setting": "[17]", "result": -1.04},
      {"measurement": "glycan array binding signal (z-score)", "setting": "[18]", "result": 1.51},
      {"measurement": "glycan array binding signal (z-score)", "setting": "[19]", "result": 0.186},
      {"measurement": "glycan array binding signal (z-score)", "setting": "[20]", "result": 0.287},
      {"measurement": "glycan array binding signal (z-score)", "setting": "[21]", "result": -1.07},
      {"measurement": "glycan array binding signal (z-score)", "setting": "[22]", "result": 0.191},
      {"measurement": "glycan array binding signal (z-score)", "setting": "[23]", "result": 1.65},
      {"measurement": "glycan array binding signal (z-score)", "setting": "[24]", "result": -0.404},
      {"measurement": "glycan array binding signal (z-score)", "setting": "[25]", "result": 0.125},
      {"measurement": "glycan array binding signal (z-score)", "setting": "[26]", "result": -0.52},
      {"measurement": "glycan array binding signal (z-score)", "setting": "[27]", "result": -0.978},
      {"measurement": "glycan array binding signal (z-score)", "setting": "[28]", "result": -0.805},
      {"measurement": "glycan array binding signal (z-score)", "setting": "[29]", "result": -0.241},
      {"measurement": "glycan array binding signal (z-score)", "setting": "[30]", "result": -0.043}
    ]}
  ]
}
